From the supplement of paper PMC12873370
Where “and” joins values, the source holds several entries; their conditions need not be identical. Equal entries are not always repeated. Some of the results follow. Repeats are few or missing, and single values can be far off.

Assays:
Test in all cases: cell viability relative to untreated (fraction); higher = less growth inhibition
Conditions in all cases: 5 µM; 3 days
[1] = tested on: MEPP (mouse ovarian epithelium Trp53/Pten KO)
[2] = tested on: PREPP (mouse prostate epithelium Trp53/Pten KO)
[3] = tested on: MEPP (mouse ovarian epithelium Trp53/Pten KO); remark: listed apart in the source
[4] = tested on: PREPP (mouse prostate epithelium Trp53/Pten KO); remark: listed apart in the source

| SMILES | cell viability [1] | cell viability [2] | cell viability [3] | cell viability [4] |
| --- | --- | --- | --- | --- |
| CN[C@@H]1C[C@H]2O[C@@](C)([C@@H]1OC)n1c3ccccc3c3c4c(c5c6ccccc6n2c5c31)C(=O)NC4 | 0.141 | 0.277 | 0.374 | 0.207 |
| CC(C)(O)/C=C/C(=O)[C@](C)(O)[C@H]1[C@H](O)C[C@@]2(C)[C@@H]3CC=C4[C@@H](C=C(O)C(=O)C4(C)C)[C@]3(C)C(=O)C[C@]12C | 0.943 | 0.991 |  |  |
| C=C1[C@@H]2CCC3[C@@](CC[C@@H]4[C@H](C(=O)O)C[C@@H](O[C@@H]5O[C@H](CO)[C@@H](OS(=O)(=O)O)[C@H](OS(=O)(=O)O)[C@H]5OC(=O)CC(C)C)C[C@@]34C)(C2)[C@@H]1O (stereo partly specified) |  |  | 0.899 | 0.856 |
| NCCc1c[nH]c2ccccc12 |  |  | 0.991 | 0.986 |
| CC1=C[C@]23C(=O)[C@@H](C=C(CO)[C@@H](O)[C@]2(O)[C@H]1O)[C@H]1[C@@H](C[C@H]3C)C1(C)C |  |  | 0.947 | 0.912 |
| O=C1CCC[C@@H]2[C@H]3CCCN4CCC[C@@H](CN12)[C@@H]34 |  |  | 1.15 | 0.876 |
| COc1cccc2c1cc([N+](=O)[O-])c1c(C(=O)O)cc3c(c12)OCO3 |  |  | 0.98 | 0.97 |
| C[C@H]1C(=O)O[C@@H]2CCN3CC=C(COC(=O)[C@](C)(O)[C@]1(C)O)[C@H]23 |  |  | 1.37 | 0.991 |
| C=CC1CN2CCC1CC2C(O)c1ccnc2ccccc12 (stereo unspecified) |  |  | 0.937 | 0.99 |
| Cc1cc2c(C(C)C)c(O)c(O)c(C=O)c2c(O)c1-c1c(C)cc2c(C(C)C)c(O)c(O)c(C=O)c2c1O |  |  | 1.14 and 0.987 | 0.816 and 0.854 |
| CC(=O)OC(C)(C)/C=C/C(=O)[C@](C)(O)[C@H]1[C@H](O)C[C@@]2(C)[C@@H]3CC=C4[C@@H](C[C@H](O)C(=O)C4(C)C)[C@]3(CO)C(=O)C[C@]12C |  |  | 0.868 | 0.941 |
| NC(=O)Cc1ccccc1 |  |  | 0.973 | 0.972 |
| COc1cc(C(=O)O[C@H]2[C@@H]3C=CO[C@@H](O[C@@H]4O[C@H](CO)[C@@H](O)[C@H](O)[C@H]4O)[C@@H]3[C@@]3(CO)O[C@@H]23)ccc1O |  |  | 0.998 | 0.755 |
| C[C@@H]1CC[C@H]2[C@@H](C)C(=O)O[C@@H]3O[C@@]4(C)CC[C@@H]1[C@]32OO4 |  |  | 1.24 | 1.31 |
| CCN1C[C@]2(COC)CC[C@H](OC)[C@]34C1[C@H]([C@H](OC)[C@H]23)[C@@]1(OC(C)=O)C[C@H](OC)[C@@]2(O)C[C@@H]4[C@@H]1[C@H]2OC(=O)c1ccc(OC)cc1 |  |  | 1.06 | 0.986 |
| CC(C)=CCOc1c2occc2cc2ccc(=O)oc12 |  |  | 1.07 | 1.24 |
| C[C@@]1(C(=O)O)CC[C@]2(C)CC[C@]3(C)C4=CC(=O)c5c(cc(O)c(O)c5C=O)[C@]4(C)CC[C@@]3(C)[C@@H]2C1 |  |  | 0.837 | 0.8 |
| COc1cc2c(cc1OC)[C@@]13CCN4CC5=CCO[C@H]6CC(=O)N2[C@H]1[C@H]6[C@H]5C[C@H]43 |  |  | 1.09 | 0.811 |
| COC1=C[C@@H]2[C@@H]3Cc4ccc(OC)c(O)c4[C@]2(CCN3C)CC1=O |  |  | 1.23 and 1 | 0.978 and 0.902 |

Shown as comma-separated lines: part of the list above
SMILES,cell viability [1],cell viability [2],cell viability [3],cell viability [4]
CN[C@@H]1C[C@H]2O[C@@](C)([C@@H]1OC)n1c3ccccc3c3c4c(c5c6ccccc6n2c5c31)C(=O)NC4,0.141,0.277,0.374,0.207
CC(C)(O)/C=C/C(=O)[C@](C)(O)[C@H]1[C@H](O)C[C@@]2(C)[C@@H]3CC=C4[C@@H](C=C(O)C(=O)C4(C)C)[C@]3(C)C(=O)C[C@]12C,0.943,0.991,,

Continuation:

| SMILES | cell viability [1] | cell viability [2] | cell viability [3] | cell viability [4] |
| --- | --- | --- | --- | --- |
| C[C@@H]1[C@H](O)[C@@H](C)/C=C/C=C/CC/C=C/C=C/C=C/C=C/[C@H](O[C@H]2O[C@@H](C)[C@H](O)[C@@H](N)[C@H]2O)C[C@@H]2O[C@](O)(C[C@@H](O)[C@H](O)CC[C@@H](O)C[C@@H](O)C[C@@H](O)CC(=O)O[C@H]1C)C[C@H](O)[C@H]2C(=O)O |  |  | 0.906 | 1.04 |
| CCCCCc1cc(O)cc(O)c1 |  |  | 0.914 | 1.29 |
| COc1ccc2c(c1)[nH]c1c(C)nccc12 |  |  | 1.09 and 1.03 | 0.855 and 0.918 |
| CC(C)c1cc2c(c(O)c1O)[C@@]1(C(=O)O)CCCC(C)(C)[C@@H]1CC2 |  |  | 1.15 | 1.27 |
| CN1[C@@H]2CC(O)C[C@H]1[C@@H]1O[C@@H]12 (stereo partly specified) |  |  | 1.02 | 1.01 |
| C[C@H]1CC[C@@H]2N(C1)C[C@H]1[C@@H]3C[C@H]4[C@@H](CC(=O)[C@H]5C[C@@H](O)CC[C@@]54C)[C@@H]3CC[C@H]1[C@]2(C)O |  |  | 1.04 | 1.05 |
| CC=Cc1cc(OC)c(OC)cc1OC |  |  | 0.906 | 0.875 |
| N#C[C@H](O[C@@H]1O[C@H](CO[C@@H]2O[C@H](CO)[C@@H](O)[C@H](O)[C@H]2O)[C@@H](O)[C@H](O)[C@H]1O)c1ccccc1 |  |  | 0.957 | 1.32 |
| C[C@]12CC[C@H](O)C[C@@H]1CC[C@@H]1[C@@H]2CC[C@]2(C)C(=O)CC[C@@H]12 |  |  | 0.921 | 0.877 |
| O=C1C=CC(=O)C=C1 |  |  | 1.04 | 0.89 |
| C[C@@H]1CC[C@]2(NC1)O[C@H]1C[C@H]3[C@@H]4CC=C5C[C@@H](O)CC[C@]5(C)[C@H]4CC[C@]3(C)[C@H]1[C@@H]2C |  |  | 1.18 | 0.905 |
| COc1cc(OC)c(OC)cc1C=O |  |  | 0.948 | 0.901 |
| O=C(O)C1CCN1 (stereo unspecified) |  |  | 0.971 | 1.07 |
| O=C1C=CC(=O)c2ccccc21 |  |  | 1.02 | 0.852 |
| COc1cc2c3c(c1OC)-c1ccccc1C[C@H]3N(C)CC2 |  |  | 1.04 | 1.01 |
| C[C@H]1O[C@H](O[C@H]2[C@H](O)[C@@H](O)[C@@H](O)[C@H](O)[C@@H]2O)[C@@H](N)C[C@@H]1NC(=N)C(=O)O |  |  | 1.17 | 1.17 |
| CCC12C=CCN3CC[C@@]4(c5ccc(OC)cc5N(C)[C@H]4[C@@](O)(C(=O)OC)[C@@H]1OC(C)=O)[C@@H]32 (stereo partly specified) |  |  | 1.48 | 0.893 |
| C=C[C@@]12CN(C)[C@H]3C[C@]14C(=Nc1ccccc14)[C@@H]1C[C@@H]2[C@@H]3CO1 |  |  | 1.14 | 0.897 |
